# This is one part of the list. Values are raw readings; no control value is given beside them.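 In the initial screen, polymyxin B was used at a concentration that permeabilizes Salmonella's outer membrane but not its inner membrane. Maximum growth was set by DMSO wells with or without polymyxin B. Since plates varied, data were ranked per plate, and compounds giving the lowest OD600 advanced as hits.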
# Test system: Salmonella enterica serovar Typhimurium SL1344
# Experiment: bacterial growth OD600 after 18 h with compound and polymyxin B; higher = more bacterial growth (less inhibition)
# Details: 50 µM, Mueller-Hinton broth
SMILES,bacterial growth OD600 (polymyxin B 1 µg/mL),bacterial growth OD600 (polymyxin B 0.75 µg/mL)
O=C(CCc1cnccn1)N(Cc1cccnc1)CC1CCN(C2CCCC2)CC1,1.19,
Cc1ccccc1CC(=O)NC1CC(=O)N(CCCc2ccccc2)C1 (centres undefined),1.13,
CCC1CN(CCNC(=O)c2sccc2Cl)Cc2cc(OC)ccc2O1 (centres undefined),,0.715
COc1cc(CC2(CCC(=O)N3CCCC(c4nc5ccccc5o4)C3)CCC(=O)N2)ccc1F (centres undefined),,0.903
CN(Cc1ccc(F)cc1)c1ccc(OCC(=O)N2CCN(c3ncc4ccccc4n3)CC2)nn1,,0.301
COC(=O)c1ccc(CN2CCCC(CO)(Cc3ccccc3F)C2)cc1 (centres undefined),1.16,
O=C1CCC(CCC(=O)N2CCC(C(O)c3cccs3)CC2)(Cc2ccccc2)N1 (centres undefined),,0.772
COc1ccc(OC2CCN(C(C)=O)CC2)c(C(=O)N2CC[C@@H]3CCCC[C@H]3C2)c1,0.585,
Cc1occc1C(=O)NC1CC(=O)N(CCCc2ccccc2)C1 (centres undefined),0.948,
Cc1ccc2c(c1)CN(CC(=O)N1CCC(c3ccncc3)CC1)CC(c1ccsc1)O2 (centres undefined),,0
CCN(CC)C(=O)Cn1cc(C(=O)NCCC(c2ccccc2)c2ccco2)nn1 (centres undefined),0.915,
CSCCNC(=O)C1CCN(c2nc(C)c3cc(C)c(C)cc3n2)CC1,,0.839
O=C(c1cccc2ccccc12)N1CCCC(Nc2ccccc2)C1 (centres undefined),0.936,
CC(C)c1ccc(CN2CCCC3(CCN(C(=O)c4cccnc4)C3)C2)cc1 (centres undefined),,0.753
O=C1CCC(CCC(=O)N2CCCC2c2ccc(F)cc2)(Cc2ccc(F)cc2)N1 (centres undefined),,0.858
CC#CCN1C(=O)NC(CCc2ccccc2)(C2CCN(CCC(C)c3ccccc3)CC2)C1=O (centres undefined),,0.742
O=C(C1=CCCCC1)N1CCC2(CCCN(Cc3ccccc3F)C2)C1 (centres undefined),0.969,
Cc1ncc2c(c1CNS(=O)(=O)N(C)C)CCN(C(=O)c1cc3ccccc3n1C)C2,,0.763
COc1ccccc1N1CCN(c2ncccc2CNC(=O)c2cnc[nH]2)CC1,,0.788

# Not a retest: two of the compounds above.
SMILES,bacterial growth OD600 (polymyxin B 1 µg/mL),bacterial growth OD600 (polymyxin B 0.75 µg/mL)
CSCCNC(=O)C1CCN(c2nc(C)c3cc(C)c(C)cc3n2)CC1,,0.839
O=C(c1cccc2ccccc12)N1CCCC(Nc2ccccc2)C1 (centres undefined),0.936,

# Reference: the supplement of paper PMC12889115
